Experimental data from US20030223975.
For at least one entry, the source does not settle the construct or the ends of the probe. Results from cells or extracts need not show a direct contact.

Sequences of proteins named here, by UniProt entry; tags and fusion partners are left off. A line that says so, or that is headed by a name, gives the form on record, which may keep a tag or linker.
UniProt P67809, other isoform, or with tags, fused parts or gaps: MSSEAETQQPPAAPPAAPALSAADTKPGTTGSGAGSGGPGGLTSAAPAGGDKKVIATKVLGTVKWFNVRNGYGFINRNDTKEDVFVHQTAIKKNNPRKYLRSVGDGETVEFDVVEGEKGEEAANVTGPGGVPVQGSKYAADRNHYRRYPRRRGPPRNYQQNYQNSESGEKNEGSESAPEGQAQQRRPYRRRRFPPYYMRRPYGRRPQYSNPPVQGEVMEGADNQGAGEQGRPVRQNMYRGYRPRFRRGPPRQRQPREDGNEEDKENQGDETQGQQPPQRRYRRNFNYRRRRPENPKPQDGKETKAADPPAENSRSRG
UniProt P62961, other isoform, or with tags, fused parts or gaps: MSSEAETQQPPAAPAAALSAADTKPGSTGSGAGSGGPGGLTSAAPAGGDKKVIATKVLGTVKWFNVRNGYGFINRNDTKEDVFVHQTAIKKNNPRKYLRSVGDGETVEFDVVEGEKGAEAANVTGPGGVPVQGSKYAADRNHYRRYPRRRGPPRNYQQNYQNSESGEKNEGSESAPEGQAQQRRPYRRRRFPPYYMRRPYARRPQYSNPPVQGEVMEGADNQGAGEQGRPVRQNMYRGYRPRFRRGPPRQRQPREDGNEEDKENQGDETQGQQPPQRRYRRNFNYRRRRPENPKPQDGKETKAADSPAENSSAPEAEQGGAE

What was measured:
[1] = biological target: YB-1 in HepG2 nuclear extract (Homo sapiens) (UniProt P67809); experiment: pull-down; conditions: more YB-1 retained than from Rat1 extract; protein in an extract; label: 32P (EMSA) or biotin (pull-down); variant of PTP1B enhancer -167/-132
[2] = biological target: YB-1 in Rat1 nuclear extract (Rattus norvegicus) (UniProt P62961); experiment: pull-down; conditions: less YB-1 retained than from HepG2 extract; protein in an extract; label: 32P (EMSA) or biotin (pull-down); variant of PTP1B enhancer -167/-132

Does “AGATATCTCGCGGTGCTGGGGCCA (double strand) [PTP1B enhancer -155/-132]” bind [1]?
Result: binds

Does “AGATATCTCGCGGTGCTGGGGCCA (double strand) [PTP1B enhancer -155/-132]” bind [2]?
Result: binds
